{"source": "PubChem BioAssay AID504784 (Drosophila RNAi Screening Center, 2011)", "screen": "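Genome-wide knock-down for genes giving too much or too little stored lipid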 (primary screen)", "system": "Drosophila Kc167 embryonic cells", "reagent": "long dsRNA against Drosophila genes, about 250 ng dsRNA per well", "duration": "4 days", "treatment": "cells fed 400 µM oleic acid bound to BSA", "measured": "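Cells imaged and segmented; ratio of lipid droplet area to nuclear area, log-transformed, then normalised as a B-score over the screen; higher means more stored lipid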", "scale": "droplet/nuclear area B-score: higher = more stored lipid (overstorage)", "note": "The deposit covers about 17,000 reagents; this is an unselected part of those that have a named target and a result. 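Each column is one replicate's B-score; the combined score over replicates was not deposited, so single values may mislead.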 A plus sign joins genes that one reagent is predicted to hit. Not all columns of the deposit are shown."}
{"predicted target":"CG1227","dsRNA":"DRSC12534","droplet/nuclear area B-score, replicate 1":-0.000816}
{"predicted target":"oc","dsRNA":"DRSC18808","droplet/nuclear area B-score, replicate 1":-1.72}
{"predicted target":"Oseg6","dsRNA":"DRSC06066","droplet/nuclear area B-score, replicate 1":-1.73}
{"predicted target":"CG5866","dsRNA":"DRSC15900","droplet/nuclear area B-score, replicate 1":0.234}
{"predicted target":"mthl13","dsRNA":"DRSC05238","droplet/nuclear area B-score, replicate 1":0.328}
{"predicted target":"CG13437","dsRNA":"DRSC06397","droplet/nuclear area B-score, replicate 1":0.107}
{"predicted target":"CG10359","dsRNA":"DRSC08156","droplet/nuclear area B-score, replicate 1":0.118}
{"predicted target":"Spt5","dsRNA":"DRSC07556","droplet/nuclear area B-score, replicate 1":-1.88}
{"predicted target":"CG42383","dsRNA":"DRSC21733","droplet/nuclear area B-score, replicate 1":-0.927}
{"predicted target":"CG31717","dsRNA":"DRSC01121","droplet/nuclear area B-score, replicate 1":-0.96}
{"predicted target":"CG15322","dsRNA":"DRSC20680","droplet/nuclear area B-score, replicate 1":-0.111}
{"predicted target":"CG15322","dsRNA":"DRSC23023","droplet/nuclear area B-score, replicate 1":1.87}
{"predicted target":"nan","dsRNA":"DRSC10551","droplet/nuclear area B-score, replicate 1":-0.349}
{"predicted target":"CG6878","dsRNA":"DRSC10737","droplet/nuclear area B-score, replicate 1":0.0217}
{"predicted target":"Dpm1","dsRNA":"DRSC02018","droplet/nuclear area B-score, replicate 1":-0.644}
{"predicted target":"CG31886","dsRNA":"DRSC03248","droplet/nuclear area B-score, replicate 1":0.739}
{"predicted target":"CG33111","dsRNA":"DRSC14208","droplet/nuclear area B-score, replicate 1":-1.75}
{"predicted target":"CG33111","dsRNA":"DRSC14444","droplet/nuclear area B-score, replicate 1":-1.62}
{"predicted target":"CG5172","dsRNA":"DRSC19936","droplet/nuclear area B-score, replicate 1":-0.541}
{"predicted target":"CG2116","dsRNA":"DRSC18206","droplet/nuclear area B-score, replicate 1":1.57}
{"predicted target":"amos","dsRNA":"DRSC03484","droplet/nuclear area B-score, replicate 1":1.09}
{"predicted target":"CG11089 + CG31381","dsRNA":"DRSC13690","droplet/nuclear area B-score, replicate 1":-0.819}
{"predicted target":"CG11089 + CG31381","dsRNA":"DRSC14290","droplet/nuclear area B-score, replicate 1":0.0428}
{"predicted target":"IKKepsilon","dsRNA":"DRSC03550","droplet/nuclear area B-score, replicate 1":1.13}
{"predicted target":"Prp19","dsRNA":"DRSC07434","droplet/nuclear area B-score, replicate 1":0.279}
{"predicted target":"CG17118","dsRNA":"DRSC02579","droplet/nuclear area B-score, replicate 1":-0.804}
{"predicted target":"CG30269","dsRNA":"DRSC04158","droplet/nuclear area B-score, replicate 1":-0.153}
{"predicted target":"CHMP2B","dsRNA":"DRSC10436","droplet/nuclear area B-score, replicate 1":0.795}
{"predicted target":"TTLL6B","dsRNA":"DRSC15932","droplet/nuclear area B-score, replicate 1":-0.262}
{"predicted target":"Arp3","dsRNA":"DRSC09669","droplet/nuclear area B-score, replicate 1":-0.0119}
{"predicted target":"Cyp6a14 (retired record)","dsRNA":"DRSC07376","droplet/nuclear area B-score, replicate 1":0.27}
{"predicted target":"AgmNAT","dsRNA":"DRSC18072","droplet/nuclear area B-score, replicate 1":-0.291}
{"predicted target":"CG33453","dsRNA":"DRSC05782","droplet/nuclear area B-score, replicate 1":-0.221}
{"predicted target":"CG15546","dsRNA":"DRSC15084","droplet/nuclear area B-score, replicate 1":0.639}
{"predicted target":"CG15546","dsRNA":"DRSC22831","droplet/nuclear area B-score, replicate 1":0.966}
{"predicted target":"Muc68E","dsRNA":"DRSC09146","droplet/nuclear area B-score, replicate 1":-0.674}
{"predicted target":"sima","dsRNA":"DRSC17055","droplet/nuclear area B-score, replicate 1":-0.00581}
{"predicted target":"sima","dsRNA":"DRSC23203","droplet/nuclear area B-score, replicate 1":-0.0491}
{"predicted target":"Cdc42","dsRNA":"DRSC20228","droplet/nuclear area B-score, replicate 1":0.423}
{"predicted target":"RpL7","dsRNA":"DRSC03417","droplet/nuclear area B-score, replicate 1":4.41}

4 entries already listed, sorted by “droplet/nuclear area B-score, replicate 1”, ascending:
{"predicted target":"Dpm1","dsRNA":"DRSC02018","droplet/nuclear area B-score, replicate 1":-0.644}
{"predicted target":"nan","dsRNA":"DRSC10551","droplet/nuclear area B-score, replicate 1":-0.349}
{"predicted target":"CG6878","dsRNA":"DRSC10737","droplet/nuclear area B-score, replicate 1":0.0217}
{"predicted target":"CG31886","dsRNA":"DRSC03248","droplet/nuclear area B-score, replicate 1":0.739}
